PubChem BioAssay AID504774, Drosophila RNAi Screening Center – 2011

- Aim: 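Genes required for cells to withstand methyl methanesulphonate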 (primary screen)
- Cells: Drosophila Kc167 cells
- Reagent: long dsRNA against Drosophila genes, about 0.25 µg dsRNA per well
- Duration: about 6 days: 3 days knock-down, then 3 days with or without MMS
- Challenge: methyl methanesulphonate 0.004% (w/v) for 3 days after knock-down
- Measured: 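Viability in wells given MMS, read as ATP luminescence, normalised by quantiles plate by plate and averaged across replicates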
- Scale: mean viability with MMS: higher = more surviving cells after MMS
The deposit covers about 23,000 reagents; below is an unselected part of those that have a named target and a result. 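Values are quantile-normalised luminescence on an arbitrary scale; higher means more cells surviving MMS.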 Names joined by + are all predicted targets of the reagent. Not all columns of the deposit are shown.

CG7882 (GeneID 35520) [SID104184691] | mean viability with MMS = 3.55e6
Noc1 (GeneID 39240) [SID104190713] | mean viability with MMS = 3.71e6
CG13983 (GeneID 33875) [SID104182107] | mean viability with MMS = 3.28e6
Eaf (GeneID 35660) [SID104184842] | mean viability with MMS = 3.30e6
Eaf (GeneID 35660) [SID104185844] | mean viability with MMS = 3.65e6
Eaf (GeneID 35660) [SID104201612] | mean viability with MMS = 3.59e6
DIP-epsilon (GeneID 7354433) [SID104180724] | mean viability with MMS = 3.44e6
DIP-epsilon (GeneID 7354433) [SID104182105] | mean viability with MMS = 3.20e6
rudhira (GeneID 32136) [SID104199613] | mean viability with MMS = 2.79e6
rudhira (GeneID 32136) [SID104201672] | mean viability with MMS = 3.67e6
rudhira (GeneID 32136) [SID104202501] | mean viability with MMS = 3.71e6
CG40005 (retired record) + cta [SID104183555] | mean viability with MMS = 3.61e6
angel (GeneID 37748) [SID104184462] | mean viability with MMS = 3.69e6
angel (GeneID 37748) [SID104201109] | mean viability with MMS = 3.39e6
CG10939 (GeneID 44155) [SID104185811] | mean viability with MMS = 3.73e6
CG10939 (GeneID 44155) [SID104201405] | mean viability with MMS = 3.65e6
CG31082 (retired record) (GeneID 318587) [SID104193567] | mean viability with MMS = 3.43e6
CG13465 (GeneID 50282) [SID104189803] | mean viability with MMS = 3.70e6
alpha4GT1 (GeneID 33512) [SID104180280] | mean viability with MMS = 3.68e6
CG31698 (GeneID 318888) [SID104201757] | mean viability with MMS = 3.66e6
Gdi (GeneID 34264) [SID104183122] | mean viability with MMS = 3.69e6
CG9525 (GeneID 34217) [SID104183041] | mean viability with MMS = 3.50e6
pxb (GeneID 41899) [SID104192902] | mean viability with MMS = 3.23e6
pxb (GeneID 41899) [SID104194788] | mean viability with MMS = 3.75e6
pxb (GeneID 41899) [SID104194789] | mean viability with MMS = 3.79e6
pxb (GeneID 41899) [SID104201756] | mean viability with MMS = 3.71e6
CG14834 (GeneID 38814) [SID104189996] | mean viability with MMS = 3.54e6
Fbp2 (GeneID 34259) [SID104183119] | mean viability with MMS = 3.79e6
Cfp1 (GeneID 31880) [SID104197920] | mean viability with MMS = 3.09e6
CG5235 (GeneID 39758) [SID104190286] | mean viability with MMS = 3.65e6
side-IV + CG17025 (retired record) [SID104194960] | mean viability with MMS = 3.84e6
FarO (GeneID 45707) [SID104198267] | mean viability with MMS = 3.66e6
CG3526 (GeneID 31277) [SID104197032] | mean viability with MMS = 3.52e6
CG3526 (GeneID 31277) [SID104198428] | mean viability with MMS = 3.52e6
jing (GeneID 35555) [SID104184715] | mean viability with MMS = 3.51e6
jing (GeneID 35555) [SID104184719] | mean viability with MMS = 3.55e6
jing (GeneID 35555) [SID104184792] | mean viability with MMS = 3.48e6
